PubChem BioAssay AID504791, Drosophila RNAi Screening Center, 2011
The screen tested about 23,000 reagents; below is a random part of those with a known target gene and a result. Of all reagents, 199 (0.86%) were called active. 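Plate-scaled ratios behind the calls are not deposited; printed light signals are raw; many rows marked increased or decreased are still called inactive.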 The numbers tell different reagents against one gene apart. Names joined by + are all predicted targets of the reagent. No sequences are given here.

- Screen: 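Genes of the fly required for silencing by miRNA, siRNA or endo-siRNA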 (primary screen)
- System: Drosophila S2-derived reporter cells
- Reagents: long dsRNA against Drosophila genes, about 150-250 ng dsRNA per well (siRNA assay); about 80-120 ng (miRNA assay)
- Timing: about 5 days (siRNA assay); about 4 days (miRNA assay)
- Challenge: copper sulfate induction of reporters: 25 µM (siRNA assay); 200 mM stated (miRNA assay), 1-2 days before reading
- Measured: 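Dual luciferase assay: Renilla to firefly signal ratio in each well, scaled to the mean ratio of its plate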
- Direction: siRNA reporter hit score: higher = 3 marks a strong hit with raised ratio; -3 a strong hit with lowered ratio
- Rule for the call: 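a well was a first-pass pick when its plate-scaled ratio rose above 1.5 (siRNA assay) or 1.6 (miRNA assay), or dropped below 0.6; a gene counted only if two separate dsRNAs agreed on retest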

siRNA reporter hit score	stable siRNA reporter change	miRNA reporter change	stable assay Renilla, run 1 (luminescence)	stable assay firefly, run 1 (luminescence)	outcome	Target gene	reagent no.
			7258	4.70e5	inactive	CG2962	1
			5367	4.34e5	inactive	CG15306	1
			5096	3.74e5	inactive	CG15306	2
	reporter ratio raised past the hit cutoff		3780	1.22e5	inactive	CG11885	1
			9243	4.05e5	inactive	CG12546 + CG14452	1
			6883	4.54e5	inactive	Dph4 (Diphthamide biosynthesis 4)	1
			7180	3.58e5	inactive	disp (dispatched)	1
			7208	3.55e5	inactive	Reps (RALBP1 associated Eps domain containing)	1
			6404	3.82e5	inactive	CG18536	1
			5944	2.99e5	inactive	TTLL6A (Tubulin tyrosine ligase-like 6A)	1
			12034	4.72e5	inactive	Oseg4 (Outer segment 4)	1
			7459	3.48e5	inactive	Nfs1 (Nfs1 cysteine desulfurase)	1
			10187	3.23e5	inactive	CG11200	1
			11292	4.92e5	inactive	CG4287	1
			7055	3.85e5	inactive	CG7309	1
			5835	3.78e5	inactive	CG7201	1
			9698	2.80e5	inactive	Mapmodulin	1
			4459	3.54e5	inactive	Ref1 (RNA and export factor binding protein 1)	1
			11227	6.41e5	inactive	Ref1 (RNA and export factor binding protein 1)	2
			10560	4.07e5	inactive	CG9389	1
			7575	3.79e5	inactive	CG31183	1
			10630	5.29e5	inactive	CG31183	2
			6040	4.19e5	inactive	MTPAP (mitochondrial poly(A) polymerase)	1
			7958	3.76e5	inactive	RYBP (Ring and YY1 Binding Protein)	1
			6811	3.23e5	inactive	CG13871	1
			7015	4.60e5	inactive	CG12883	1
			6511	4.06e5	inactive	CG13358	1
			7299	5.12e5	inactive	CG11656	1
			6826	3.76e5	inactive	CG31099	1
	reporter ratio raised past the hit cutoff		5862	1.93e5	inactive	MED11 (Mediator complex subunit 11)	1
			2780	2.53e5	inactive	MED11 (Mediator complex subunit 11)	2
			7842	2.74e5	inactive	CG16926	1
			4396	3.91e5	inactive	ddbt (deadbeat)	1
			6288	3.11e5	inactive	CG17109	1
			5730	4.24e5	inactive	CG11378	1
			6052	3.80e5	inactive	CG7963	1
			7745	4.68e5	inactive	gb (genderblind)	1
			6958	5.08e5	inactive	CG13081	1
			7507	4.41e5	inactive	CG30075	1
			6038	3.54e5	inactive	Cyp313a3 (Cytochrome P450 313a3)	1
			6810	2.57e5	inactive	CG46385	1
			7262	4.39e5	inactive	CG46385	2
			8450	3.02e5	inactive	Pcyt2 (Phosphocholine cytidylyltransferase 2)	1
			7987	3.91e5	inactive	CG17768 + LSm-4	1
			10231	4.38e5	inactive	mthl8 (methuselah-like 8)	1
			6236	3.62e5	inactive	mthl8 (methuselah-like 8)	2
			8123	6.38e5	inactive	Nna1 (Nna1 carboxypeptidase)	1
			2532	2.15e5	inactive	CG18131	1
			4895	3.48e5	inactive	CG18131	2
-3	reporter ratio raised past the hit cutoff	reporter ratio raised past the hit cutoff	31008	4.91e5	active	Cbp80 (cap binding protein 80)	1
			11335	7.98e5	inactive	CG8668	1
			4388	4.12e5	inactive	CG43102	1
			7869	5.78e5	inactive	CG43102	2
			5043	3.08e5	inactive	CG4830	1
			7143	3.09e5	inactive	lbe (ladybird early)	1
			3655	3.48e5	inactive	CG3719	1
			8886	3.54e5	inactive	SdhA (Succinate dehydrogenase, subunit A (flavoprotein))	1
			7094	3.92e5	inactive	CG31633	1
			1.81e5	1.70e6	inactive	Fcp1 (TFIIF-interacting CTD phosphatase)	1
		reporter ratio lowered past the hit cutoff			active	Fcp1 (TFIIF-interacting CTD phosphatase)	2
			6287	3.49e5	inactive	CG2211	1
			6831	3.77e5	inactive	CG11889 + CG11891	1
			8427	4.17e5	inactive	CG11889 + CG11891	2
			7575	4.21e5	inactive	CG4596	1
			13039	4.81e5	inactive	SRPK (SR Protein Kinase)	1
			9490	5.30e5	inactive	CG5641	1
			6488	1.06e6	inactive	CG7300	1
		reporter ratio raised past the hit cutoff			inactive	CG7300	2
			6392	3.26e5	inactive	Drip	1
			7259	4.43e5	inactive	mil (milkah)	1
			7012	3.31e5	inactive	l(2)03659 (lethal (2) 03659)	1
			7999	4.53e5	inactive	l(2)03659 (lethal (2) 03659)	2
			3012	3.05e5	inactive	CG7889	1
			7324	3.79e5	inactive	CG7896	1
			5391	3.31e5	inactive	Adi1 (Acireductone dioxygenase 1)	1
			8774	4.61e5	inactive	Adi1 (Acireductone dioxygenase 1)	2
			7870	4.47e5	inactive	LysRS (Lysyl-tRNA synthetase)	1
			6547	3.23e5	inactive	CG9294	1
			48243	7.82e5	inactive	Nup214 (Nucleoporin 214kD)	1
			6047	4.50e5	inactive	CG10035	1
			4923	3.10e5	inactive	PGRP-LC (Peptidoglycan recognition protein LC)	1
			5838	5.25e5	inactive	PGRP-LC (Peptidoglycan recognition protein LC)	2
			5895	5.74e5	inactive	PGRP-LC (Peptidoglycan recognition protein LC)	3

Called active (from the list above):
siRNA reporter hit score	stable siRNA reporter change	miRNA reporter change	stable assay Renilla, run 1 (luminescence)	stable assay firefly, run 1 (luminescence)	outcome	Target gene	reagent no.
-3	reporter ratio raised past the hit cutoff	reporter ratio raised past the hit cutoff	31008	4.91e5	active	Cbp80 (cap binding protein 80)	1
		reporter ratio lowered past the hit cutoff			active	Fcp1 (TFIIF-interacting CTD phosphatase)	2
